Where a name gives a salt, the structure may show the parent alone. Read-outs that look alike come from different tables or passages of the source.
Tests used:
[1] = animal experiments
[2] = humans; data found by Staib and Fuhr; cited from earlier work

O=C(O)c1cn(C2CC2)c2cc(N3CCNCC3)c(F)cc2c1=O [cyprofloxacin-hydrochloride, ciprofloxacin-hydrochloride]
absorption from the colon [1]: only absorbed to a very small degree from the colon | absorption from the colon [2]: only absorbed to a very small degree from the colon
